PubChem BioAssay AID1159578, Peter MacCallum Cancer Centre – 2015
Shown is a random part of about 18,000 reagents. About 1,030 of them (5.7%) count as active. 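Inactive calls also include pools with fewer than 3300 nuclei, whose migration was not assessed.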 Raw values vary from plate to plate and are shown uncorrected. No sequences are given here.

- Test: 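Knock-downs that alter how fast lymphatic endothelial cells migrate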 (primary screen)
- System: human lymphatic endothelial cells
- Reagent: siRNA pool against human genes, 40 nM
- Duration: 48 h after transfection
- Measured: 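Cells stained with dye and imaged after a scratch; covered wound area and nuclei counted, duplicates averaged, migration set against mock wells and turned into a robust z-score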
- Direction: migration robust z-score: higher = faster migration into the scratch; migration relative to mock: higher = more scratch area covered than mock; nuclei per well: higher = more cells in the well
- Active means: 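Pools averaging fewer than 3300 nuclei are never called; remaining pools count as changed when migration robust z lies outside -2 to 2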
- Meaning of the calls: active = migration changed; inactive = no migration change, or too few cells

no.	target gene	migration robust z-score	migration class with cell-count check	migration relative to mock	nuclei per well, duplicate mean	Call
1	AIFM1 (apoptosis inducing factor mitochondria associated 1)	-0.52	migration z between -2 and 2; enough cells	0.7	5732	inactive
2	GYS2 (glycogen synthase 2)	1.61	migration z between -2 and 2; enough cells	1.12	5812	inactive
3	ABCC12 (ATP binding cassette subfamily C member 12)	0.46	migration z between -2 and 2; enough cells	0.9	5663	inactive
4	SPRING1 (SREBF pathway regulator in golgi 1)	-0.32	migration z between -2 and 2; enough cells	0.8	7290	inactive
5	SF3B5 (splicing factor 3b subunit 5)	-0.57	migration z between -2 and 2; enough cells	0.74	3373	inactive
6	PEX19 (peroxisomal biogenesis factor 19)	1.75	migration z between -2 and 2; enough cells	1.34	6276	inactive
7	UGT2B28 (UDP glucuronosyltransferase family 2 member B28)	0.24	migration z between -2 and 2; enough cells	0.85	4720	inactive
8	AKNAD1 (AKNA domain containing 1)	0.04	migration z between -2 and 2; enough cells	0.89	6283	inactive
9	TIPE1 (TNF alpha induced protein 8 like 1)	0.42	migration z between -2 and 2; enough cells	1	3958	inactive
10	SDSL (serine dehydratase like)	-1.09	migration z between -2 and 2; enough cells	0.6	4850	inactive
11	CYP7B1 (cytochrome P450 family 7 subfamily B member 1)	1.32	migration z between -2 and 2; enough cells	1.06	5704	inactive
12	INPP5A (inositol polyphosphate-5-phosphatase A)	-0.78	migration z between -2 and 2; enough cells	0.66	5370	inactive
13	NKX2-2 (NK2 homeobox 2)	0.15	migration z between -2 and 2; enough cells	0.92	7335	inactive
14	SNAI2 (snail family transcriptional repressor 2)	-0.86	migration z between -2 and 2; enough cells	0.66	5227	inactive
15	GPN3 (GPN-loop GTPase 3)	-0.33	migration z between -2 and 2; enough cells	0.8	5904	inactive
16	WNT7A (Wnt family member 7A)	-0.91	migration z between -2 and 2; enough cells	0.64	6138	inactive
17	TRIM65 (tripartite motif containing 65)	0.57	migration z between -2 and 2; enough cells	0.92	6856	inactive
18	NSUN3 (NOP2/Sun RNA methyltransferase 3)	0.72	migration z between -2 and 2; enough cells	1.07	6985	inactive
19	ARAF (A-Raf proto-oncogene, serine/threonine kinase)	-0.73	migration z between -2 and 2; enough cells	0.66	5294	inactive
20	KCNIP3 (potassium voltage-gated channel interacting protein 3)	-0.08	migration z between -2 and 2; enough cells	0.79	4638	inactive
21	EIF2B1 (eukaryotic translation initiation factor 2B subunit alpha)	-0.49	migration z between -2 and 2; enough cells	0.71	6008	inactive
22	PDCD6 (programmed cell death 6)	-1.19	migration z between -2 and 2; enough cells	0.58	7208	inactive
23	NPR2 (natriuretic peptide receptor 2)	-0.54	migration z between -2 and 2; enough cells	0.7	6470	inactive
24	ATPAF2 (ATP synthase mitochondrial F1 complex assembly factor 2)	0.29	migration z between -2 and 2; enough cells	0.96	6234	inactive
25	GLIPR1L2 (GLIPR1 like 2)	-0.52	migration z between -2 and 2; enough cells	0.75	3918	inactive
26	ACSBG1 (acyl-CoA synthetase bubblegum family member 1)	0.25	migration z between -2 and 2; enough cells	0.95	7040	inactive
27	IP6K1 (inositol hexakisphosphate kinase 1)	0.08	migration z between -2 and 2; enough cells	0.82	3842	inactive
28	PITPNM2 (phosphatidylinositol transfer protein membrane associated 2)	0.28	migration z between -2 and 2; enough cells	0.86	4771	inactive
29	CPXCR1 (CPX chromosome region candidate 1)	0.59	migration z between -2 and 2; enough cells	1.04	5998	inactive
30	NYNRIN (NYN domain and retroviral integrase containing)	0.93	migration z between -2 and 2; enough cells	1.12	4679	inactive
31	KHDC4 (KH domain containing 4, pre-mRNA splicing factor)	1.48	migration z between -2 and 2; enough cells	1.27	5246	inactive
32	C14orf180 (chromosome 14 open reading frame 180)	0.22	migration z between -2 and 2; enough cells	0.94	5958	inactive

4 of these entries, set out differently.
target gene	migration robust z-score	migration class with cell-count check	migration relative to mock	nuclei per well, duplicate mean	Call
ABCC12 (ATP binding cassette subfamily C member 12)	0.46	migration z between -2 and 2; enough cells	0.9	5663	inactive
SPRING1 (SREBF pathway regulator in golgi 1)	-0.32	migration z between -2 and 2; enough cells	0.8	7290	inactive
SF3B5 (splicing factor 3b subunit 5)	-0.57	migration z between -2 and 2; enough cells	0.74	3373	inactive
PEX19 (peroxisomal biogenesis factor 19)	1.75	migration z between -2 and 2; enough cells	1.34	6276	inactive

Additional reagents follow.
no.	target gene	migration robust z-score	migration class with cell-count check	migration relative to mock	nuclei per well, duplicate mean	Call
33	DUT (deoxyuridine triphosphatase)	0.23	migration z between -2 and 2; enough cells	0.85	5744	inactive
34	FMNL1 (formin like 1)	0.42	migration z between -2 and 2; enough cells	1	5768	inactive
35	PPP1R9B (protein phosphatase 1 regulatory subunit 9B)	0.78	migration z between -2 and 2; enough cells	1.08	5658	inactive
36	NIBAN2 (niban apoptosis regulator 2)	-0.38	migration z between -2 and 2; enough cells	0.78	5590	inactive
37	KAAG1 (kidney associated DCDC2 antisense RNA 1)	-0.26	migration z between -2 and 2; enough cells	0.82	3724	inactive
38	PBOV1 (prostate and breast cancer overexpressed 1)	1.57	migration z between -2 and 2; enough cells	1.29	5746	inactive
39	CES2 (carboxylesterase 2)	-0.5	migration z between -2 and 2; enough cells	0.71	5322	inactive
40	TGFA (transforming growth factor alpha)	-0.12	migration z between -2 and 2; enough cells	0.85	6066	inactive
41	RBM45 (RNA binding motif protein 45)	-0.08	migration z between -2 and 2; enough cells	0.86	5812	inactive
42	RMND1 (required for meiotic nuclear division 1 homolog)	-0.36	migration z between -2 and 2; enough cells	0.8	5687	inactive
43	LRCH1	3.01	migration z above 2; enough cells	1.66	6197	active
44	MGRN1 (mahogunin ring finger 1)	1.38	migration z between -2 and 2; enough cells	1.07	5532	inactive
45	OR52E2 (olfactory receptor family 52 subfamily E member 2)	0.56	migration z between -2 and 2; enough cells	1.03	6110	inactive
46	MAGEC3 (MAGE family member C3)	0.16	migration z between -2 and 2; enough cells	0.92	5576	inactive
47	IST1 (IST1 factor associated with ESCRT-III)	-0.02	migration z between -2 and 2; enough cells	0.88	5606	inactive
48	GLI4 (GLI family zinc finger 4)	-1.54	migration z between -2 and 2; enough cells	0.48	4200	inactive
49	VPS37C (VPS37C subunit of ESCRT-I)	-1.86	under 3300 nuclei; migration not judged	0.41	2866	inactive
50	H3C15 (H3 clustered histone 15)	-0.64	migration z between -2 and 2; enough cells	0.72	6300	inactive
51	CAMK2A (calcium/calmodulin dependent protein kinase II alpha)	-0.88	migration z between -2 and 2; enough cells	0.64	4603	inactive
52	SLC5A12	-0.08	migration z between -2 and 2; enough cells	0.79	5274	inactive
53	RFESD (Rieske Fe-S domain containing)	-1.37	migration z between -2 and 2; enough cells	0.53	5026	inactive
54	HNRNPM (heterogeneous nuclear ribonucleoprotein M)	-0.58	migration z between -2 and 2; enough cells	0.74	5998	inactive
55	LAT2 (linker for activation of T cells family member 2)	-0.8	migration z between -2 and 2; enough cells	0.68	5076	inactive
56	SYAP1 (synapse associated protein 1)	-1.03	migration z between -2 and 2; enough cells	0.62	5151	inactive
57	WDR54 (WD repeat domain 54)	0.12	migration z between -2 and 2; enough cells	0.92	6600	inactive
